Reference: PubChem BioAssay AID504793 (Drosophila RNAi Screening Center, 2011)
The deposit covers about 23,000 reagents; this is an unselected part of those that have a named target and a result. Of all reagents, 62 (0.27%) were called active. 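Calls come from follow-up tests whose scores are not deposited, so confirmed genes may have low counts here; counts are not normalised per plate.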 Raw values vary from plate to plate and are shown uncorrected. A plus sign joins genes that one reagent is predicted to hit.

Purpose: 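Genes required for cells to halt at G2/M after double-strand DNA breaks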 (primary screen)
Cells: Drosophila S2R+ cells
Reagent: long dsRNA against Drosophila genes, about 0.25 µg dsRNA per well
Duration: 4 days of dsRNA, then 4 hours of drug before read-out
Challenge: doxorubicin 0.5 µM for 4 hours to cause double-strand breaks, in cells also given a low, harmless dose of dsRNA against nbs to sensitise the assay
Detection: 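Per-well count of mitotic cells stained for phospho-histone H3 after doxorubicin exposure, used as mitotic index; counts are raw and not normalised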
Direction: mitotic cells: higher = more cells in mitosis, weaker G2 arrest
Call rule: 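Genes are called active only when high mitotic counts were reproduced with independent dsRNAs and mitosis was checked for delay without damage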
Meaning of the calls: active = confirmed in follow-up tests; inactive = not confirmed

| target gene | DRSC id | mitotic cells, replicate 1 | Call |
| --- | --- | --- | --- |
| subdued | DRSC15137 | 7 | inactive |
| Rabex-5 | DRSC08628 | 5 | inactive |
| Rabex-5 | DRSC29819 | 4 | inactive |
| l(2)37Cd | DRSC02069 | 4 | inactive |
| cic | DRSC16918 | 9 | inactive |
| cic | DRSC21243 | 8 | inactive |
| cic | DRSC23217 | 4 | inactive |
| cic | DRSC25516 | 5 | inactive |
| cic | DRSC25800 | 4 | inactive |
| cic | DRSC30090 | 3 | inactive |
| hdly | DRSC15849 | 6 | inactive |
| CG13043 | DRSC09924 | 3 | inactive |
| CG13043 | DRSC25440 | 1 | inactive |
| CG14610 + asRNA:CR42738 | DRSC12554 | 2 | inactive |
| RNaseZ | DRSC06845 | 6 | inactive |
| CG12581 | DRSC12206 | 5 | inactive |
| CG12581 | DRSC12207 | 2 | inactive |
| CG31178 | DRSC14590 | 7 | inactive |
| Gpat4 | DRSC04345 | 3 | inactive |

The list goes on; the last 6 above are carried over.
| target gene | DRSC id | mitotic cells, replicate 1 | Call |
| --- | --- | --- | --- |
| CG14610 + asRNA:CR42738 | DRSC12554 | 2 | inactive |
| RNaseZ | DRSC06845 | 6 | inactive |
| CG12581 | DRSC12206 | 5 | inactive |
| CG12581 | DRSC12207 | 2 | inactive |
| CG31178 | DRSC14590 | 7 | inactive |
| Gpat4 | DRSC04345 | 3 | inactive |
| CG7694 | DRSC16288 | 6 | inactive |
| Sry-delta | DRSC24964 | 1 | inactive |
| CG7218 | DRSC16216 | 3 | inactive |
| CG7218 | DRSC27550 | 4 | inactive |
| CG4836 | DRSC15659 | 4 | inactive |
| CG4836 | DRSC24789 | 4 | inactive |
| Acp62F | DRSC08136 | 7 | inactive |
| feo | DRSC19398 | 18 | inactive |
| feo | DRSC23773 | 6 | inactive |
| X11Lbeta | DRSC18156 | 5 | inactive |
| X11Lbeta | DRSC18158 | 11 | inactive |
| X11Lbeta | DRSC29533 | 4 | inactive |
| CG32160 (retired record) | DRSC22904 | 29 | inactive |
| CG13551 | DRSC21847 | 8 | inactive |
| CG7910 | DRSC16341 | 5 | inactive |
| Ide | DRSC11867 | 5 | inactive |
| CG12111 | DRSC17808 | 7 | inactive |
| CG12111 | DRSC26511 | 11 | inactive |
| Arc1 | DRSC06159 | 12 | inactive |
| Arc1 | DRSC28128 | 12 | inactive |
| CG12253 | DRSC02153 | 7 | inactive |
| CG12253 | DRSC27266 | 6 | inactive |
| CG14630 | DRSC18166 | 6 | inactive |
| CG14630 | DRSC18653 | 12 | inactive |
| CG17048 | DRSC06649 | 12 | inactive |
| Hex-t2 | DRSC22517 | 8 | inactive |
| Hex-t2 | DRSC28247 | – | inactive |
